# Source: paper PMC8384837
# Changes are numbered by the printed parent chain. The list shows a part of the results. For some of these results: At the low end of the ranking the order means little.
# Columns and labels:
# Conditions in all cases: yeast three-hybrid, YBZ-1, SC-Leu-His + 0.5 mM 3-AT, 4 days
# [1] = target: T1, PUM1 PUF domain R7-LTC S1079L + N1080T + E1083C (UniProt Q14671)
# T1 sequence: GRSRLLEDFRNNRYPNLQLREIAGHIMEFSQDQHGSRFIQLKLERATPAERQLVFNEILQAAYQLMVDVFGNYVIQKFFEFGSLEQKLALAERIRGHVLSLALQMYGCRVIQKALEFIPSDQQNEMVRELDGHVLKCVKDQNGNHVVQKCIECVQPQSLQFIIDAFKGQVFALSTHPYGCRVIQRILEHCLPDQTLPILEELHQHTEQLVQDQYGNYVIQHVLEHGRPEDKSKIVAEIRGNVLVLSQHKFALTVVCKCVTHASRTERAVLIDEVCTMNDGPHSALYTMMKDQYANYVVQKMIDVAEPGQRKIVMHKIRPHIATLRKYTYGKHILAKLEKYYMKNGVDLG
# [2] = target: T2, PUM1 PUF domain R7-LTL S1079L + N1080T + E1083L (UniProt Q14671)
# T2 sequence: T1 sequence with C256L
# [3] = target: T3, PUM1 PUF domain R7-LTV S1079L + N1080T + E1083V (UniProt Q14671)
# T3 sequence: T1 sequence with C256V
# [4] = target: T4, PUM1 PUF domain R7-LYW S1079L + N1080Y + E1083W (UniProt Q14671)
# T4 sequence: T1 sequence with T253Y, C256W
# [5] = target: T5, PUM1 PUF domain R7-MSG S1079M + N1080S + E1083G (UniProt Q14671)
# T5 sequence: T1 sequence with L252M, T253S, C256G
# [6] = target: T6, PUM1 PUF domain R7-MSR S1079M + N1080S + E1083R (Homo sapiens) (UniProt Q14671)
# T6 sequence: T1 sequence with L252M, T253S, C256R
# [7] = target: T7, PUM1 PUF domain R7-QGG S1079Q + N1080G + E1083G (UniProt Q14671)
# T7 sequence: T1 sequence with L252Q, T253G, C256G
# [8] = target: T8, PUM1 PUF domain R7-QGR S1079Q + N1080G + E1083R (Homo sapiens) (UniProt Q14671)
# T8 sequence: T1 sequence with L252Q, T253G, C256R
# [9] = target: T9, PUM1 PUF domain R7-QPG S1079Q + N1080P + E1083G (Homo sapiens) (UniProt Q14671)
# T9 sequence: T1 sequence with L252Q, T253P, C256G
# [10] = target: T10, PUM1 PUF domain R7-QSG S1079Q + N1080S + E1083G (Homo sapiens) (UniProt Q14671)
# T10 sequence: T1 sequence with L252Q, T253S, C256G
# [11] = target: T11, PUM1 PUF domain R7-QSN S1079Q + N1080S + E1083N (Homo sapiens) (UniProt Q14671)
# T11 sequence: T1 sequence with L252Q, T253S, C256N
# [12] = target: T12, PUM1 PUF domain R7-QSR S1079Q + N1080S + E1083R (Homo sapiens) (UniProt Q14671)
# T12 sequence: T1 sequence with L252Q, T253S, C256R
# [13] = target: T13, PUM1 PUF domain R7-QTR S1079Q + N1080T + E1083R (Homo sapiens) (UniProt Q14671)
# T13 sequence: T1 sequence with L252Q, C256R
# [14] = target: T14, PUM1 PUF domain R7-RAS S1079R + N1080A + E1083S (Homo sapiens) (UniProt Q14671)
# T14 sequence: T1 sequence with L252R, T253A, C256S
# [15] = target: T15, PUM1 PUF domain R7-RCG S1079R + N1080C + E1083G (Homo sapiens) (UniProt Q14671)
# T15 sequence: T1 sequence with L252R, T253C, C256G
# [16] = target: T16, PUM1 PUF domain R7-RER S1079R + N1080E + E1083R (Homo sapiens) (UniProt Q14671)
# T16 sequence: T1 sequence with L252R, T253E, C256R
# [17] = target: T17, PUM1 PUF domain R7-RGF S1079R + N1080G + E1083F (Homo sapiens) (UniProt Q14671)
# T17 sequence: T1 sequence with L252R, T253G, C256F
# [18] = target: T18, PUM1 PUF domain R7-RGW S1079R + N1080G + E1083W (Homo sapiens) (UniProt Q14671)
# T18 sequence: T1 sequence with L252R, T253G, C256W
# [19] = target: T19, PUM1 PUF domain R7-RGY S1079R + N1080G + E1083Y (Homo sapiens) (UniProt Q14671)
# T19 sequence: T1 sequence with L252R, T253G, C256Y
# [20] = target: T20, PUM1 PUF domain R7-RIL S1079R + N1080I + E1083L (Homo sapiens) (UniProt Q14671)
# T20 sequence: T1 sequence with L252R, T253I, C256L
# [21] = target: T21, PUM1 PUF domain R7-RIQ S1079R + N1080I + E1083Q (Homo sapiens) (UniProt Q14671)
# T21 sequence: T1 sequence with L252R, T253I, C256Q
# [22] = target: T22, PUM1 PUF domain R7-RIR S1079R + N1080I + E1083R (Homo sapiens) (UniProt Q14671)
# T22 sequence: T1 sequence with L252R, T253I, C256R
# [23] = target: T23, PUM1 PUF domain R7-RKR S1079R + N1080K + E1083R (Homo sapiens) (UniProt Q14671)
# T23 sequence: T1 sequence with L252R, T253K, C256R
# [24] = target: T24, PUM1 PUF domain R7-RML S1079R + N1080M + E1083L (Homo sapiens) (UniProt Q14671)
# T24 sequence: T1 sequence with L252R, T253M, C256L
# [25] = target: T25, PUM1 PUF domain R7-RPE S1079R + N1080P (Homo sapiens) (UniProt Q14671)
# T25 sequence: T1 sequence with L252R, T253P, C256E
sequence,measurement,setting,value
GGCUAGAACUAGUGGAUCCCCCGGCGCCCGGCGGCUCGAGCCCGGGUAAGUCUAAAUAGUCUGCAUGCCGCCGGGCGCCAUGCCUGCAGGUCGACUCUAGAAAACAUG,binding signal (log2 enrichment (interaction score)),[1],< -10.3
same,binding signal (log2 enrichment (interaction score)),[2],< -7.91
same,binding signal (log2 enrichment (interaction score)),[3],< -8.74
same,binding signal (log2 enrichment (interaction score)),[4],< -7.15
same,binding signal (log2 enrichment (interaction score)),[5],< -8.43
same,binding signal (log2 enrichment (interaction score)),[6],-2.45
same,binding signal (log2 enrichment (interaction score)),[7],< -8.21
same,binding signal (log2 enrichment (interaction score)),[8],-1.57
same,binding signal (log2 enrichment (interaction score)),[9],-0.98
same,binding signal (log2 enrichment (interaction score)),[10],-4
same,binding signal (log2 enrichment (interaction score)),[11],-2.05
same,binding signal (log2 enrichment (interaction score)),[12],0.29
same,binding signal (log2 enrichment (interaction score)),[13],-1.67
same,binding signal (log2 enrichment (interaction score)),[14],-1.58
same,binding signal (log2 enrichment (interaction score)),[15],0.09
same,binding signal (log2 enrichment (interaction score)),[16],-0.02
same,binding signal (log2 enrichment (interaction score)),[17],-1.62
same,binding signal (log2 enrichment (interaction score)),[18],-0.46
same,binding signal (log2 enrichment (interaction score)),[19],-0.28
same,binding signal (log2 enrichment (interaction score)),[20],-1.8
same,binding signal (log2 enrichment (interaction score)),[21],-0.03
same,binding signal (log2 enrichment (interaction score)),[22],-0.96
same,binding signal (log2 enrichment (interaction score)),[23],0.66
same,binding signal (log2 enrichment (interaction score)),[24],-2.8
same,binding signal (log2 enrichment (interaction score)),[25],-0.65

# Given as tab-separated lines: entries from further up
sequence	measurement	setting	value
GGCUAGAACUAGUGGAUCCCCCGGCGCCCGGCGGCUCGAGCCCGGGUAAGUCUAAAUAGUCUGCAUGCCGCCGGGCGCCAUGCCUGCAGGUCGACUCUAGAAAACAUG	binding signal (log2 enrichment (interaction score))	[15]	0.09
same	binding signal (log2 enrichment (interaction score))	[16]	-0.02
same	binding signal (log2 enrichment (interaction score))	[17]	-1.62
same	binding signal (log2 enrichment (interaction score))	[18]	-0.46
same	binding signal (log2 enrichment (interaction score))	[19]	-0.28
same	binding signal (log2 enrichment (interaction score))	[20]	-1.8
same	binding signal (log2 enrichment (interaction score))	[21]	-0.03
